# Data as given in PMC3646763.
# Chains of the proteins cited; added tags and fusions are not shown. A line that says so, or that is headed by a name, gives the form on record, which may keep a tag or linker.
# CNBP (zCNBP, formerly ZNF9) (Danio rerio), one chain, as listed by the source: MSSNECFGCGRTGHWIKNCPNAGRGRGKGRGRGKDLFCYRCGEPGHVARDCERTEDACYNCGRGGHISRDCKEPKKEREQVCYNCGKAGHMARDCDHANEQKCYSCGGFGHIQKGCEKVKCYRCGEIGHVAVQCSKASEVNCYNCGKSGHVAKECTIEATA
# System: CNBP (zCNBP, formerly ZNF9) (Danio rerio)
# Experiment: EMSA
# Conditions: EMSA: 20 ul, 30 min at 37 C, 2 nM 32P probe, 0.015-5 uM zCNBP, 12% (14-nt) or 10% (30-nt) PAGE with 5% glycerol, 0.5x TBE, binding buffer, recombinant protein, label: 32P
# [1] = up to 5 uM CNBP, single-stranded DNA
sequence,measurement,setting,value
ATTATTATCCCCCCTCCCCCTCTATTATTA [C30-comp],binding result,[1],no binding
CCCCCCTCCCCCTC [C14-comp],binding result,[1],no binding
GAAGAAGAAGAGAG [C14-mut],binding result,[1],no binding
GAAGCTCAGAAAAATAAAAGAGTGCAGCAC [s2-mut],binding result,single-stranded DNA,binds more weakly
GAAGCTCAGAGAGGTAAAGGGGTGCAGCAC [s2],binding result,single-stranded DNA,binds
GAGGGGGAGGGGGG (double strand) [ds-C14],binding result,up to 5 uM CNBP,no binding
GAGGGGGAGGGGGG [C14],binding result,"high affinity, Kd printed only in figure, single-stranded DNA",binds
GATGGAGAGAATAAGAAAAAAGAAGCAGAG [t1-mut],binding result,single-stranded DNA,binds more weakly
GATGGAGAGAGTGGGAGAGAAGAAGCAGAG [t1],binding result,single-stranded DNA,binds
GCACCCTGGAAGAAGAAGAAAGGTTGGTAG [s1-mut],binding result,single-stranded DNA,binds more weakly
GCACCCTGGAGGAGGAGGAAGGGTTGGTAG [s1],binding result,single-stranded DNA,binds
TAATAATAGAAGAAGAAGAGAGATAATAAT [C30-mut],binding result,[1],no binding
TAATAATAGAGGGGGAGGGGGGATAATAAT (double strand) [ds-C30],binding result,up to 5 uM CNBP,no binding
TAATAATAGAGGGGGAGGGGGGATAATAAT [C30],binding result,"similar to C14, single-stranded DNA",binds

# Construct, isoform or probe ends are uncertain for at least one entry. No signal at the amounts used counts as a negative. A weaker result is weaker than the reference pair of the same experiment. At least one verdict rests on a figure or table, not on a statement of the authors.
